No constants are given. Whether binding was seen depends on the method and setting. Binding seen in cells or lysates may run through a third protein. Some results given as binding are weak or reduced against the parent protein; the word gives no strength. Where a sequence is shown, tags or fusion partners need not be part of it.
Assays:
[1] = biological target: FLAG-tagged Itk KD co-expressed with Lck and treated with alkaline phosphatase (mouse) (UniProt Q03526); experiment: GST pull-down (FIG. 3g)
[2] = biological target: FLAG-tagged Itk KD expressed alone (without Lck) (mouse) (UniProt Q03526); experiment: GST pull-down (FIG. 3g)
[3] = biological target: FLAG-tagged Itk KD expressed alone (without Lck) (mouse) (UniProt Q03526); experiment: GST pull-down on glutathione beads, anti-FLAG blot (FIG. 3g, lane 2)
[4] = biological target: FLAG-tagged Itk KD co-expressed with Lck and treated with alkaline phosphatase (mouse) (UniProt Q03526); experiment: GST pull-down on glutathione beads, anti-FLAG blot (FIG. 3g, lane 6)

The chains behind the UniProt entries cited, without tags or fusion partners. Residues count along the entry.
UniProt Q03526, residues 362-625: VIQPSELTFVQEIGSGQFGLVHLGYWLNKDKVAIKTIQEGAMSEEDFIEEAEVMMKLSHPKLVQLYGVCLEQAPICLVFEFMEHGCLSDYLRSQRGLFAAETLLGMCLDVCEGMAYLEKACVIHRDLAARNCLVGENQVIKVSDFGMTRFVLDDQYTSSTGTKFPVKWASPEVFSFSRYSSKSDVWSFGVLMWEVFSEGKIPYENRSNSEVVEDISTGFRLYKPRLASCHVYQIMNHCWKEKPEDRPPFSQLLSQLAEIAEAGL

Measured: binding

B1: GST-PLCγ1 C-terminal SH2 domain (GST-PLCγ1 SH2C) (protein, rat, UniProt P10686 659-756, looked up, not shown: a dimerising Fc or GST)
chain: QTNAHESKEWYHASLTRAQAEHMLMRVPRDGAFLVRKRNEPNSYAISFRAEGKIKHCRVQQEGQTVMLGNSEFDSLVDLISYYEKHPLYRKMKLRYPI
binds: all assays above

From US20140287434A1
